PubChem BioAssay AID1259254 | NCATS – 2017
Test: 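Finding genes that stop cells copying their DNA twice in one cycle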 (primary screen). Cell system: human HCT116 colorectal cancer cells. Reagents: single siRNA against human genes. Timing: 3 days. Measurement: 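Imaged Hoechst DNA stain sorts each cell into a cycle phase by DNA amount; per plate, G2 fraction set to 0% for non-targeting and 100% for GMNN siRNA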. Direction: G2 robust z-score and G2 cells, % of GMNN control: higher = more G2 cells, more excess DNA replication; raw share of cells in G2: higher = larger share of cells with G2 DNA content. Rule for the call: 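Active siRNAs have a G2 robust z of 5 or more median absolute deviations over the median, which in these data means about 38% or higher of GMNN control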.
This is an unselected part of about 59,000 deposited reagents. About 1,550 of all reagents (2.6%) were called active. 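G2 share is only a proxy for re-replication; each gene was hit by three separate siRNAs, and active genes were retested.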 Raw values vary from plate to plate and are shown uncorrected. Reagents against one gene are numbered here. The record does not give: the amount of reagent.

gene | reagent no. | G2 robust z-score | G2 cells, % of GMNN control | raw share of cells in G2 (%) | Outcome
FKBP5 | 1 | 1.94 | 16.6 | 11.3 | inactive
FKBP5 | 2 | -0.977 | -3.91 | 3.78 | inactive
FKBP5 | 3 | -0.763 | -2.4 | 2.8 | inactive
PCDH17 | 1 | -0.475 | -0.372 | 3.87 | inactive
PCDH17 | 2 | 0.648 | 7.53 | 6.69 | inactive
PCDH17 | 3 | 0.0152 | 3.07 | 7.56 | inactive
ATP2A3 | 1 | -1.34 | -6.45 | 2.94 | inactive
ATP2A3 | 2 | 0.538 | 6.75 | 7.07 | inactive
ATP2A3 | 3 | -1.08 | -4.63 | 2.57 | inactive
SREBF1 | 1 | 2.13 | 17.9 | 10.6 | inactive
SREBF1 | 2 | -1.08 | -4.65 | 2.67 | inactive
SREBF1 | 3 | -1.19 | -5.43 | 1.14 | inactive
DPCD | 1 | 1.95 | 16.7 | 9.13 | inactive
DPCD | 2 | 1.54 | 13.8 | 9.61 | inactive
DPCD | 3 | 3.21 | 25.6 | 15 | inactive
RAB11B | 1 | 1.98 | 16.9 | 11.2 | inactive
RAB11B | 2 | 3.56 | 28 | 17.2 | inactive
RAB11B | 3 | 1.37 | 12.6 | 9.21 | inactive
TNF | 1 | 0.627 | 7.38 | 7.97 | inactive
TNF | 2 | -0.407 | 0.107 | 4.82 | inactive
TNF | 3 | 0.321 | 5.22 | 6.41 | inactive
NFAT5 | 1 | -0.538 | -0.815 | 5.62 | inactive
NFAT5 | 2 | -0.532 | -0.775 | 3.01 | inactive
NFAT5 | 3 | -0.856 | -3.06 | 2.51 | inactive
ARMCX6 | 1 | -0.705 | -1.99 | 2.89 | inactive
ARMCX6 | 2 | 1.29 | 12 | 9.35 | inactive
ARMCX6 | 3 | -0.573 | -1.06 | 2.84 | inactive
IL1R2 | 1 | -1.07 | -4.56 | 2.56 | inactive
IL1R2 | 2 | 8.5 | 62.8 | 32.1 | active
IL1R2 | 3 | -0.343 | 0.555 | 4.66 | inactive
ATP5ME | 1 | -1.38 | -6.76 | 2.42 | inactive
ATP5ME | 2 | -0.132 | 2.04 | 4.75 | inactive
ATP5ME | 3 | 0.932 | 9.52 | 8.46 | inactive
CDC73 | 1 | -0.715 | -2.06 | 3.68 | inactive
CDC73 | 2 | -0.629 | -1.46 | 3.95 | inactive
CDC73 | 3 | -0.789 | -2.59 | 2.01 | inactive
SPINT1 | 1 | 1.38 | 12.7 | 9.95 | inactive
SPINT1 | 2 | -1.2 | -5.49 | 2.66 | inactive
SPINT1 | 3 | -0.59 | -1.18 | 3.57 | inactive
RARRES1 | 1 | -1.08 | -4.62 | 3.39 | inactive
RARRES1 | 2 | 1.69 | 14.9 | 9.09 | inactive
RARRES1 | 3 | -0.805 | -2.7 | 3.65 | inactive
OR52D1 | 1 | -0.559 | -0.965 | 3.44 | inactive
OR52D1 | 2 | -0.782 | -2.54 | 2.3 | inactive
OR52D1 | 3 | 1.19 | 11.3 | 9.48 | inactive
KSR1 | 1 | -1.25 | -5.85 | 3.77 | inactive
KSR1 | 2 | -0.0984 | 2.28 | 6.02 | inactive
KSR1 | 3 | 2.86 | 23.1 | 11.1 | inactive
CD38 | 1 | -0.942 | -3.66 | 3.66 | inactive
CD38 | 2 | 1.99 | 16.9 | 11 | inactive
CD38 | 3 | -0.918 | -3.49 | 2.89 | inactive
EIF2B1 | 1 | -0.158 | 1.85 | 5.91 | inactive
EIF2B1 | 2 | -0.439 | -0.119 | 5.22 | inactive
EIF2B1 | 3 | 6.27 | 47 | 20.4 | active
HCRTR2 | 1 | -0.727 | -2.15 | 5.07 | inactive
HCRTR2 | 2 | -0.418 | 0.0278 | 4.53 | inactive
HCRTR2 | 3 | -0.507 | -0.597 | 3.09 | inactive
PROKR2 | 1 | -1.28 | -6.07 | 3.67 | inactive
PROKR2 | 2 | 0.676 | 7.73 | 7.22 | inactive
PROKR2 | 3 | 1.68 | 14.8 | 7.8 | inactive
CYB5D2 | 1 | -0.579 | -1.11 | 3.65 | inactive
CYB5D2 | 2 | 0.219 | 4.51 | 4.67 | inactive
CYB5D2 | 3 | -0.369 | 0.368 | 1.93 | inactive
NPR2 | 1 | 0.000221 | 2.97 | 4.21 | inactive
NPR2 | 2 | -0.138 | 2 | 5.56 | inactive
NPR2 | 3 | 2.77 | 22.4 | 13.7 | inactive
VIP | 1 | 1.29 | 12.1 | 8.45 | inactive
VIP | 2 | -1.13 | -4.97 | 2.41 | inactive
VIP | 3 | 1.12 | 10.8 | 10.2 | inactive
SMG5 | 1 | -0.662 | -1.69 | 2.71 | inactive
SMG5 | 2 | -0.571 | -1.05 | 4.02 | inactive
SMG5 | 3 | -0.0848 | 2.37 | 4.97 | inactive
ULK3 | 1 | 3.49 | 27.5 | 14.2 | inactive
ULK3 | 2 | -1.49 | -7.5 | 2.46 | inactive
ULK3 | 3 | 0.825 | 8.77 | 6.49 | inactive
LY6K | 1 | 0.7 | 7.89 | 6.43 | inactive
LY6K | 2 | -0.422 | -0.00315 | 4.27 | inactive
LY6K | 3 | -0.739 | -2.23 | 2.45 | inactive
NUMB | 1 | 1.68 | 14.8 | 10.5 | inactive
NUMB | 2 | -0.0568 | 2.57 | 5.7 | inactive
NUMB | 3 | 0.515 | 6.59 | 7.07 | inactive
SLC39A5 | 1 | 0.0436 | 3.27 | 6.24 | inactive
SLC39A5 | 2 | 0.42 | 5.92 | 6.45 | inactive
SLC39A5 | 3 | 2.55 | 20.9 | 15 | inactive
VPS13D | 1 | 0.733 | 8.12 | 7.65 | inactive
VPS13D | 2 | -0.137 | 2 | 4.97 | inactive
VPS13D | 3 | -0.307 | 0.805 | 3.39 | inactive

11 entries from above, sorted by “G2 robust z-score”, ascending.
gene | reagent no. | G2 robust z-score | G2 cells, % of GMNN control | raw share of cells in G2 (%) | Outcome
ATP5ME | 1 | -1.38 | -6.76 | 2.42 | inactive
SPINT1 | 2 | -1.2 | -5.49 | 2.66 | inactive
CDC73 | 3 | -0.789 | -2.59 | 2.01 | inactive
CDC73 | 1 | -0.715 | -2.06 | 3.68 | inactive
CDC73 | 2 | -0.629 | -1.46 | 3.95 | inactive
SPINT1 | 3 | -0.59 | -1.18 | 3.57 | inactive
IL1R2 | 3 | -0.343 | 0.555 | 4.66 | inactive
ATP5ME | 2 | -0.132 | 2.04 | 4.75 | inactive
ATP5ME | 3 | 0.932 | 9.52 | 8.46 | inactive
SPINT1 | 1 | 1.38 | 12.7 | 9.95 | inactive
IL1R2 | 2 | 8.5 | 62.8 | 32.1 | active
